Test results taken from patent publication US8999660B2, “Methods Relating to Mammalian Rictor Polypeptide” (Whitehead Institute for Biomedical Research, priority 2003, dated 2015).
For at least one compound, name, drawing or mass did not settle the structure.

How the values were obtained:
S6K1 phosphorylation = S6K1 phosphorylation in cells by immunoblotting; format: cell-based, human; conditions: HeLa cells treated with rapamycin
Experimental: 3 million HEK293T cells in 6-cm dishes were transfected with plasmid constructs indicated in the Figure legends using the Lipofectamine 2000 transfection reagent (Life Technology). 24 hours after DNA addition, cells were rinsed once with PBS and lysed in 300 μl of ice cold Buffer B. Immune complexes were prepared from cleared supernatants using 3 μg polyclonal anti-myc or monoclonal anti-HA antibodies and 20 μl of a 50% slurry protein G-Sepharose. After a 3-hour incubation, immunoprecipitates were washed six times with Buffer B and twice with Wash Buffer 2. Bound proteins were eluted in 1× sample buffer, and mTOR or HA- or myc-tagged proteins were detected by immunoblotting as described (Burnett, P. E., et al. (1998), PNAS 95, 1432-1437). 21-nucleotide complementary RNAs with 2-nucleotide overhangs (Elbashir, S. M., et al. (2001), Nature 411, 494-8) were designed to target bases 188-210 if the GβL open reading frame. […]
Effectene (Qiagen) was used to transfect 1.2 million HEK293T cells in 6-cm dishes with up to 1 μg of the expression plasmids indicated in the figure legends. 48 hours after DNA addition, the cells were rinsed once with PBS and lysed in 800 μl of ice-cold Lysis Buffer containing either CHAPS or Triton X-100 and analyzed by immunoprecipitation and immunoblotting as above. […]

rictor phosphorylation = assay: Rictor mobility in SDS-PAGE (rictor phosphorylation state), immunoblot of HeLa lysates; format: cell-based, human; conditions: HeLa cells exposed for 1 hr to 20 nM rapamycin or 20 nM LY294002
Experimental: 3×10^6 HeLa or HEK293T cells growing in 10-cm dishes were rinsed once with cold PBS and lysed on ice for 20 min in 1 ml of ice-cold Lysis Buffer (40 mM Hepes pH 7.5, 120 mM NaCl, 1 mM EDTA, 10 mM pyrophosphate, 10 mM glycerophosphate, 50 mM NaF, and EDTA-free protease inhibitors (Roche)) containing either 0.3% CHAPS or 1% Triton X-100. After centrifugation at 13,000×g for 10 min, 4 μg of the indicated antibodies were added to the cleared supernatant and incubated with rotation for 90-min. 20 μl of a 50% slurry of protein G-sepharose was then added and the incubation continued for 1 h. Captured immunoprecipitates were washed four times with Lysis Buffer and once with Wash Buffer (50 mM Hepes pH 7.5, 40 mM NaCl, and 2 mM EDTA). Samples were resolved by SDS-PAGE and proteins transferred to PVDF and visualized by immunoblotting as described (Kim et al., 2002, Cell, 110:163-175). In vitro mTOR kinase assays were also as described (Kim et al., 2002, Cell, 110:163-175).

| SMILES | phosphorylation of S6K1 (S6K1 phosphorylation) | rictor mobility in SDS-PAGE (rictor phosphorylation) |
| --- | --- | --- |
| CO[C@H]1C[C@@H]2CC[C@@H](C)[C@@](O)(O2)C(=O)C(=O)N2CCCC[C@H]2C(=O)O[C@H]([C@H](C)C[C@@H]2CC[C@@H](O)[C@H](OC)C2)CC(=O)[C@H](C)/C=C(\C)[C@@H](O)[C@@H](OC)C(=O)[C@H](C)C[C@H](C)/C=C/C=C/C=C/1C [rapamycin] | greatly decreased | – |
| O=c1cc(N2CCOCC2)oc2c(-c3ccccc3)cccc12 [LY294002] | – | increased rictor mobility |
